Assay results reported in PubChem BioAssay AID330 (DTP/NCI, 2004).
The list does not hold the whole screen: it is rich in T/C values a quarter to a half above the control, in often repeated tests (any T/C) and in doses without a T/C. Further doses and runs are listed elsewhere. T/C gives the treated animals as a percentage of the vehicle group. Some entries give survivors of the animals treated and no T/C: the source holds a T/C of zero for them, seemingly a mark for toxic or unscored doses. Some doses without a T/C left all or most animals alive at the check, yet need not have been tolerated: survival well below the control is almost never listed, so the zero probably covers shortened survival too. Counts of survivors are from the toxicity check (mostly the fifth day) where no day follows; animals may have died later. Schedules are NCI's codes, taken here to give the interval after Q, in days (D) or hours (H), and the number of doses after X. For survival time, the PubChem record calls one and a half times the control and up active, and a quarter to a half above the control has no call in these data; cut-offs in other NCI protocols can differ.

Tested on: P388 leukemia ip, CD2F1 mice, survival T/C
Assay: NCI In Vivo Anticancer Drug Screen. Data for tumor model P388 Leukemia (intraperitoneal) in CD2F1 (CDF1) mice
Settings: T/C endpoint: median survival time, higher T/C = longer survival
[1] = dose: 50.0 mg/kg/injection, schedule: Q01DX009 (ip), vehicle: saline
[2] = dose: 200.0 mg/kg/injection, schedule: Q01DX005 (ip), vehicle: saline with Tween-80
[3] = dose: 100.0 mg/kg/injection, schedule: Q01DX009 (ip), vehicle: saline with Tween-80
[4] = dose: 400.0 mg/kg/injection, schedule: Q01DX009 (ip), vehicle: saline with Tween-80
[5] = dose: 50.0 mg/kg/injection, schedule: Q01DX009 (ip), vehicle: saline with Tween-80
[6] = dose: 200.0 mg/kg/injection, schedule: Q01DX009 (ip), vehicle: saline with Tween-80
[7] = dose: 100.0 mg/kg/injection, schedule: Q01DX009 (ip), vehicle: saline
[8] = dose: 200.0 mg/kg/injection, schedule: Q01DX009 (ip), vehicle: saline
[9] = dose: 240.0 mg/kg/injection, schedule: Q01DX005 (ip), vehicle: saline with Tween-80
[10] = dose: 120.0 mg/kg/injection, schedule: Q01DX005 (ip), vehicle: Klucel (hydroxypropylcellulose) (HPC)
[11] = dose: 50.0 mg/kg/injection, schedule: Q01DX005 (ip), vehicle: saline with Tween-80
[12] = dose: 100.0 mg/kg/injection, schedule: Q01DX005 (ip), vehicle: saline with Tween-80
[13] = dose: 100.0 mg/kg/injection, schedule: Q01DX009 (ip), vehicle: Klucel (hydroxypropylcellulose) (HPC)
[14] = dose: 100.0 mg/kg/injection, schedule: Q01DX005 (ip), vehicle: saline
[15] = dose: 200.0 mg/kg/injection, schedule: Q01DX005 (ip), vehicle: saline

`COC(=O)CC1(O)C(=O)OCc2c1cc1n(c2=O)Cc2c-1nc1ccccc1c2OC` (configuration not stated) was tested, and the T/C [1] was 127 % of control, the survivor count (dose: 50.0 mg/kg/injection, schedule: Q01DX009 (ip), vehicle: suspension in saline) was 6 of 6 and the survivor count (dose: 200.0 mg/kg/injection, schedule: Q01DX009 (ip), vehicle: suspension in saline) was 6 of 6.

With `CNC(=O)OCc1c(COC(=O)NC)c2n(c1C)CCS2(=O)=O` the survivor count [2] was 6 of 6 and the survivor count (dose: 400.0 mg/kg/injection, schedule: Q01DX005 (ip), vehicle: saline with Tween-80) was 6 of 6.

In the case of `COCCCNS(=O)(=O)c1ncnc2nc[nH]c12`, the T/C (dose: 200.0 mg/kg/injection, schedule: Q04DX003 (ip), vehicle: saline with Tween-80) is reported as 125 % of control.

`CCC(C)Sc1nc(N)nc2c1ncn2C1OC(CO)C(O)C1O` (configuration not stated) was tested, and the T/C [3] was 130 % of control, the survivor count [4] was 2 of 6 and the T/C (dose: 400.0 mg/kg/injection, schedule: Q04DX003 (ip), vehicle: saline with Tween-80) was 128 % of control.

For `CCOC(=O)C1(Br)CCCCC1Br` (configuration not stated), the T/C [5] was 125 % of control and the survivor count [6] was 6 of 6.

In the case of `O=C1C2=C(Nc3ccccc3N2)OC1c1ccccc1Cl` (configuration not stated), the survivor count (dose: 240.0 mg/kg/injection, schedule: Q01DX005 (ip), vehicle: Klucel (hydroxypropylcellulose) (HPC)) is reported as 6 of 6.

For `N#Cc1c(Cl)nc2sccn12`, the survivor count (dose: 400.0 mg/kg/injection, schedule: Q01DX001 (ip), vehicle: Klucel (hydroxypropylcellulose) (HPC)) was 0 of 6.

With `COC(=O)C1=C(C(=O)OC)[C]([Hg][CH3])(C(C)=O)N=N1` (configuration not stated) the survivor count (dose: 25.0 mg/kg/injection, schedule: Q01DX009 (ip), vehicle: saline) was 0 of 6, the survivor count [1] was 0 of 6 and the survivor count [7] was 0 of 6. For the same compound, the survivor count [8] was 0 of 6.

In the case of `O=C/C=C/c1cccc([N+](=O)[O-])c1`, the survivor count [4] is reported as 1 of 6.

`c1ccc2c3c([nH]c2c1)C1CC2CCCCC2CN1CC3` (configuration not stated) was tested, and the survivor count [9] was 0 of 6.

For `CN1C(=O)C/C(=C\N2CCCCC2)C1=O`, the survivor count [2] was 1 of 5.

`COc1ccccc1OC(C)=O` was tested, and the survivor count [7] was 6 of 6.

With `CCCCCCC[CH2][Sn]([F])([F])[CH2]CCCCCCC` the survivor count (dose: 200.0 mg/kg/injection, schedule: Q04DX003 (ip), vehicle: saline) was 5 of 6 and the survivor count (dose: 400.0 mg/kg/injection, schedule: Q04DX003 (ip), vehicle: saline) was 0 of 6.

With `C=C(C)C(=O)N(CC)CC` the survivor count [1] was 6 of 6.

With `COC(=O)c1nc(N)nc(C(=O)OC)c1C(=O)c1ccc(Cl)c(Cl)c1` the survivor count [9] was 0 of 6.

For `c1ccc2c(Nc3ccc4c(c3)OCO4)c3c(nc2c1)CCCC3`, the survivor count (dose: 100.0 mg/kg/injection, schedule: Q01DX005 (ip), vehicle: Klucel (hydroxypropylcellulose) (HPC)) was 0 of 6 and the survivor count (dose: 200.0 mg/kg/injection, schedule: Q01DX005 (ip), vehicle: Klucel (hydroxypropylcellulose) (HPC)) was 0 of 6.

`CC(C)CCc1cc(O)c(CCC(C)C)cc1O` was tested, and the survivor count (dose: 12.5 mg/kg/injection, schedule: Q01DX009 (ip), vehicle: saline with Tween-80) was 6 of 6, the survivor count (dose: 25.0 mg/kg/injection, schedule: Q01DX009 (ip), vehicle: saline with Tween-80) was 6 of 6 and the survivor count [5] was 6 of 6. The survivor count [6] was 6 of 6.

With `C/C(=N\N=C(N)N)c1ccc(-c2ccccc2)cc1` the survivor count (dose: 100.0 mg/kg/injection, schedule: Q04DX002 (ip), vehicle: saline with Tween-80) was 1 of 6.

With `Nc1nc(/C=C\c2ccccc2)cc(-c2cc(/C=C\c3ccccc3)nc(N)n2)n1` the survivor count [10] was 6 of 6.

`CCC12CCCN1CCc1c([nH]c3ccccc13)C2=O` (configuration not stated) was tested, and the survivor count (dose: 400.0 mg/kg/injection, schedule: Q04DX002 (ip), vehicle: suspension in saline) was 0 of 6.

For `CC(C)c1cc(C(=O)[O-])c([O-])c(C(C)C)c1.[Cu+2].c1cnc2c(c1)ccc1cccnc12`, the survivor count [11] was 0 of 6, the survivor count [12] was 0 of 6 and the survivor count [2] was 0 of 6.

In the case of `Nc1nc(-c2ccccn2)cc2cc(Cl)ccc12`, the survivor count [9] is reported as 0 of 6.

For `C(=C\c1cc2ccc(C3=NCCN3)cc2o1)/c1cc2ccc(C3=NCCN3)cc2o1`, the T/C (dose: 100.0 mg/kg/injection, schedule: Q04DX003 (ip), vehicle: suspension in saline) was 127 % of control, the survivor count (dose: 200.0 mg/kg/injection, schedule: Q04DX003 (ip), vehicle: suspension in saline) was 1 of 6 and the survivor count (dose: 400.0 mg/kg/injection, schedule: Q04DX003 (ip), vehicle: suspension in saline) was 1 of 6.

`CCCCC(CCCC)=NNC(=S)SC` was tested, and the survivor count [6] was 1 of 6.

With `CCCn1c2c(c3ccccc3c1=O)C(=O)c1ccccc1-2` the survivor count [11] was 5 of 5, the survivor count [12] was 5 of 5 and the survivor count [2] was 5 of 5.

In the case of `CSc1nc(N)n2ncc(Br)c2n1`, the survivor count (dose: 200.0 mg/kg/injection, schedule: Q04DX002 (ip), vehicle: saline with Tween-80) is reported as 6 of 6 and the survivor count (dose: 400.0 mg/kg/injection, schedule: Q04DX002 (ip), vehicle: saline with Tween-80) is reported as 5 of 5.

With `CC(=O)Nc1ccc(OCCOC(=O)Nc2c(Cl)cccc2Cl)cc1` the survivor count [13] was 6 of 6.

In the case of `CC1CN1P(=O)(OCCCl)N1CC1C` (configuration not stated), the survivor count [8] is reported as 4 of 6.

In the case of `C=CCc1ccc(O)c(OC)c1`, the survivor count (dose: 200.0 mg/kg/injection, schedule: Q01DX009 (ip), vehicle: other) is reported as 6 of 6 and the survivor count (dose: 400.0 mg/kg/injection, schedule: Q01DX009 (ip), vehicle: other) is reported as 0 of 6.

`CCC(CC)(C(=O)Nc1ccc2nc(C)cc(N)c2c1)C(=O)Nc1ccc2nc(C)cc(N)c2c1` was tested, and the survivor count [12] was 5 of 5.

For `OC1CC2c3ccccc3C1c1cccc[n+]12` (configuration not stated), the survivor count [14] was 1 of 5 and the survivor count [15] was 0 of 5.

`C/C=C(\C)C(=O)OC1C2C(C)=CC(=O)C(O)C2(C)C2C3(O)OCC24C1OC(=O)C(O)C4C(C)C3O` (configuration not stated) was tested, and the T/C (dose: 5.0 mg/kg/injection, schedule: Q01DX005 (ip), vehicle: saline) was 145 % of control, the survivor count (dose: 60.0 mg/kg/injection, schedule: Q01DX005 (ip), vehicle: Klucel (hydroxypropylcellulose) (HPC)) was 0 of 6 and the survivor count [10] was 0 of 6.

In the case of `COc1ccc2c(c1)CCC1(C)CC(=O)C(Br)=C21` (configuration not stated), the T/C (dose: 25.0 mg/kg/injection, schedule: Q01DX009 (ip), vehicle: Klucel (hydroxypropylcellulose) (HPC)) is reported as 142 % of control, the survivor count (dose: 50.0 mg/kg/injection, schedule: Q01DX009 (ip), vehicle: Klucel (hydroxypropylcellulose) (HPC)) is reported as 6 of 6 and the survivor count [13] is reported as 6 of 6. For the same compound, the survivor count (dose: 200.0 mg/kg/injection, schedule: Q01DX009 (ip), vehicle: Klucel (hydroxypropylcellulose) (HPC)) was 6 of 6.

For `CCCCCC(C[N+]1(C)CCOCC1)C(=O)/C=C/c1ccccc1` (configuration not stated), the survivor count [5] was 3 of 6, the survivor count [1] was 1 of 6 and the survivor count [3] was 0 of 6. The survivor count [7] was 0 of 6.

For `C[C@H](CCC1=NC(C)(C)CO1)C1CCC2[C@@H]3C(O)C[C@@H]4CC(O)CC[C@]4(C)C3CC[C@@]21C` (some centres not stated), the survivor count [9] was 6 of 6.

In the case of `O=S(=O)(Nc1ccccn1)c1ccc(N=Cc2c3ccccc3nc3cc(Cl)ccc23)cc1`, the survivor count [2] is reported as 6 of 6.

With `Nc1c[nH]c(=S)s1` the survivor count [6] was 0 of 6.

In the case of `CCOC(CN=Cc1cc(C)c2oc3ccccc3c2c1C)OCC`, the survivor count [4] is reported as 4 of 6.

For `CC(=O)C1CO1` (configuration not stated), the survivor count [14] was 5 of 5 and the survivor count [15] was 0 of 5.

In the case of `Cc1cc(C)c2c(c1)CC(C)(C)C(=O)OC2=O`, the survivor count [9] is reported as 0 of 6.
